# Laboratory results from US20250320565A1, “DETECTING ANTIBIOTIC AND/OR CHEMICAL USE IN AQUATIC ANIMALS USING EPIGENETIC MEANS” (Evonik Operations GmbH, priority 2022, published 2025).
# At least one compound was matched to its structure with a doubt left.
# Tested on: marble crayfish
# Test: DNA methylation analysis (Agilent Sure Select Methyl-Seq) of abdominal tissue genomic DNA after antibiotic administration in feed
# Format: in vivo
# Procedure: Marble crayfish collected from a population at Lake Reilinger, Germany were collected for the experiment and reared from juveniles in the laboratory. A total of 30 adult marbled crayfish were reared in one of 5 treatments with replicates as outlined in Table 1: • 1) Control—no antibiotic treatment • 2) TetraA—Acute tetracycline administration at 10 mg/kg of feed for 7 days • 3) TetraB—Prophylactic tetracycline administration at 5 mg/kg of feed for 42 days • 4) NorA—administered at 10 mg/kg of feed for 7 days • 5) NorB—administered at 5 mg/kg of feed for 28 days
# All other rearing variables were kept consistent for all treatment groups. Crayfish were reared in plastic containers with 20° C. tap water, which was replaced every two weeks, exposed to natural day-night light rhythms and daily feeding. […]
# Quality controls were performed, and sample concentrations were measured on a 2,200 TapeStation (Agilent). […]
# To identify antibiotic-specific methylation ratios in genomic DNA from abdominal tissue, the average methylation of each sample within 1 kb of DNA segments was calculated.
# The data sets of the 1754 DNA segments were further analyzed and only the CpG positions covered in all samples with at least 10 reads were used. […]
# The DNA segments of the PCA were further analyzed and only the CpG positions that have at least 10 reads in all samples were reused. […]
smiles,measurement,setting,value
CN(C)[C@@H]1C(O)=C(C(N)=O)C(=O)[C@@]2(O)C(O)=C3C(=O)c4c(O)cccc4[C@@](C)(O)[C@H]3C[C@@H]12 [tetracycline],PCA separation between treated and untreated samples and between the two treatment groups,PCA of differentially methylated DNA segments,robust separation
same,methylation of nine CpGs of gene Scaffold_690: 3807095-3807233,"TetraA: 10 mg/kg of feed for 7 days, compared with control",increased in comparison
